The assay deals with Gardner 6C3HED lymphosarcoma ip, C3AKF1 mice, survival T/C. In words: NCI In Vivo Anticancer Drug Screen. Data for tumor model Lymphosarcoma Gardner 6C3HED (intraperitoneal) in C3AKF1 (CHKRF1) mice. The settings on record: T/C endpoint: survival time, mean or median, schedule: Q01DX010 (ip), vehicle: saline, higher T/C = longer survival. As to the method: The antitumor activity of compounds was measured in mice bearing transplantable tumors. Survival or tumor size were measured and the results are expressed as the measurement made in the treated group (T) divided by the measurement made in the vehicle treated control group (C). The tumor model used in this assay is Lymphosarcoma Gardner 6C3HED (intraperitoneal) in C3AKF1 (CHKRF1) mice

Molecules are shown by their SMILES. The list does not hold the whole screen: it gathers some chemical classes. Not every dose and run of a compound is shown. T/C is the treated group as % of the vehicle group. Where survival is the endpoint, the PubChem record calls one and a half times the control and up active, and a quarter to a half above the control has no call in these data; cut-offs in other NCI protocols can differ. Some T/C values are marked as having no survivor count here; that says nothing about deaths at the dose. Schedules are NCI's codes, taken here to give the interval after Q, in days (D) or hours (H), and the number of doses after X. Some doses were run more than once; the values are given in rising order.

With `ClCCN(CCCl)Cc1nc2ccccc2[nH]1`, the T/C (dose: 1.25 mg/kg/injection) was 116 % of control [survivor count not shown], the T/C (dose: 2.5 mg/kg/injection) is 158 % of control [survivor count not shown], the T/C (dose: 5.0 mg/kg/injection) is 183 % of control [survivor count not shown] and the T/C (dose: 10.0 mg/kg/injection) was 170 % of control [survivor count not shown].
For `CC(C(=O)O)N(CCCl)CCCl` (stereo unspecified), the T/C (dose: 0.25 mg/kg/injection) is 116 % of control [survivor count not shown]; the T/C (dose: 0.5 mg/kg/injection) is 108 [survivor count not shown] and 145 % of control [survivor count not shown]; the T/C (dose: 1.0 mg/kg/injection) is 125 [survivor count not shown] and 136 % of control [survivor count not shown]; the T/C (dose: 2.0 mg/kg/injection) is 112 [survivor count not shown] and 159 % of control [survivor count not shown]; the T/C (dose: 4.0 mg/kg/injection) was 86 % of control [survivor count not shown].
As for `O=C(O)CN(CCCl)CCCl`, the T/C was 100 % of control [survivor count not shown] (dose: 0.62 mg/kg/injection); 116 % of control [survivor count not shown] (dose: 0.63 mg/kg/injection); 120 [survivor count not shown] and 122 % of control [survivor count not shown] (dose: 1.25 mg/kg/injection); 125 [survivor count not shown] and 136 % of control [survivor count not shown] (dose: 2.5 mg/kg/injection); 90 % of control [survivor count not shown] (dose: 5.0 mg/kg/injection).
For `ClCCNCCCl`, the T/C is 91 [survivor count not shown], 96 [survivor count not shown], 109 % of control [survivor count not shown] (dose: 18.8 mg/kg/injection); 107 [survivor count not shown], 112 [survivor count not shown], 114 % of control [survivor count not shown] (dose: 37.5 mg/kg/injection); 120 [survivor count not shown], 121 [survivor count not shown], 147 % of control [survivor count not shown] (dose: 75.0 mg/kg/injection).
In the case of `NC1CCCCC1.NP(=O)(O)N(CCCl)CCCl`, the T/C by setting is: (dose: 15.6 mg/kg/injection) 141 [survivor count not shown] and 177 % of control [survivor count not shown]; (dose: 21.3 mg/kg/injection) 191 % of control [survivor count not shown]; (dose: 31.3 mg/kg/injection) 209 % of control [survivor count not shown]; (dose: 62.5 mg/kg/injection) 108 [survivor count not shown] and 209 % of control [survivor count not shown].

The values above are taken from PubChem BioAssay AID232 (DTP/NCI, 2004).
